Data as given in PubChem BioAssay AID602196 (INSERM, 2012)
Test: 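Knock-downs that protect lung cancer cells from cisplatin or sensitise them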. Cells: human A549 lung cancer cells. Knock-down reagent: siRNA pair against human genes. Time to read-out: 48 h transfection before cisplatin; time from cisplatin to read-out not stated. Treatment: cisplatin at a dose killing half of control-siRNA cells; exact dose and duration not given. Measurement: 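Shift in cisplatin death relative to control siRNA, from -50 (all cells die) to +50 (no cells die); siRNAs harmful on their own scored 0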. Scale: two-siRNA summed score (-2 to +2): higher = both siRNAs protect from cisplatin killing; -2 means both sensitise. Rule for the call: 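siRNAs harmful alone (LDH or WST-1) get 0; others get +1 for less and -1 for more cisplatin killing; genes are active when the two siRNAs give the same sign, summing to ±2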. Calls: active = both siRNAs shift cisplatin killing the same way; inactive = no consistent shift, or siRNA harmful alone.
Here is a random part of about 23,000 reagents tested. 455 of all reagents (2%) were called active. 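Active includes both protection and sensitisation; some change values fall well beyond the stated -50 to +50 range.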 Not all columns of the deposit are shown. No sequences are given here. Not stated in the record: the amount of reagent.

gene symbol	two-siRNA summed score (-2 to +2)	Outcome
TJAP1P1 (TJAP1 pseudogene 1)	1	inactive
RCN3 (reticulocalbin 3)	-1	inactive
LOC440445	1	inactive
CHEK1 (checkpoint kinase 1)	0	inactive
NPAT (nuclear protein, coactivator of histone transcription)	0	inactive
GPR156 (G protein-coupled receptor 156)	0	inactive
LOC401155	1	inactive
RPL26L1 (ribosomal protein L26 like 1)	0	inactive
BTN3A3 (butyrophilin subfamily 3 member A3)	-1	inactive
YPEL2 (yippee like 2)	0	inactive
MACC1 (MET transcriptional regulator MACC1)	-1	inactive
RTN4 (reticulon 4)	0	inactive
MRPL49 (mitochondrial ribosomal protein L49)	0	inactive
LHX1 (LIM homeobox 1)	2	active
THEM5 (thioesterase superfamily member 5)	0	inactive
CLEC4G (C-type lectin domain family 4 member G)	1	inactive
LOC440941	0	inactive
SERPING1 (serpin family G member 1)	1	inactive
PPP1R3A (protein phosphatase 1 regulatory subunit 3A)	1	inactive
LOC341315	0	inactive
TRPA1	-1	inactive
SPMIP2 (sperm microtubule inner protein 2)	0	inactive
CD55 (CD55 molecule (Cromer blood group))	0	inactive
SUN3 (Sad1 and UNC84 domain containing 3)	0	inactive
STXBP5L (syntaxin binding protein 5L)	0	inactive
INO80C (INO80 complex subunit C)	0	inactive
FLJ90680 (retired record)	0	inactive
OR51G1 (olfactory receptor family 51 subfamily G member 1)	0	inactive
DYNLT2 (dynein light chain Tctex-type 2)	-1	inactive
RUMY4 (RUMY family member 4)	0	inactive
LOC402716	0	inactive
MED17 (mediator complex subunit 17)	-1	inactive
LY6G6C (lymphocyte antigen 6 family member G6C)	0	inactive
LOC347454	0	inactive
LOC400019	0	inactive
FAM180A (family with sequence similarity 180 member A)	0	inactive
HIF1AN (hypoxia inducible factor 1 subunit alpha inhibitor)	0	inactive
ARC (activity regulated cytoskeleton associated protein)	1	inactive
LOC388275	1	inactive
MAGI3	-1	inactive
MEIS2 (Meis homeobox 2)	1	inactive
LOC441043	0	inactive
ITIH3 (inter-alpha-trypsin inhibitor heavy chain 3)	0	inactive
HDX (highly divergent homeobox)	0	inactive
P2RX4 (purinergic receptor P2X 4)	0	inactive
LRRC39 (leucine rich repeat containing 39)	1	inactive
LOC441338	-1	inactive
TSLP (thymic stromal lymphopoietin)	0	inactive
COG6 (component of oligomeric golgi complex 6)	0	inactive
USP42 (ubiquitin specific peptidase 42)	0	inactive
GCLC (glutamate-cysteine ligase catalytic subunit)	-1	inactive
LRRTM4 (leucine rich repeat transmembrane neuronal 4)	-1	inactive
GSTZ1 (glutathione S-transferase zeta 1)	-1	inactive
TNNI2 (troponin I2, fast skeletal type)	1	inactive
EDC3 (enhancer of mRNA decapping 3)	0	inactive
IFT81 (intraflagellar transport 81)	1	inactive
LOC388277	0	inactive

A few values from the list.
GCLC (glutamate-cysteine ligase catalytic subunit), Outcome = inactive
MACC1 (MET transcriptional regulator MACC1), Outcome = inactive
PPP1R3A (protein phosphatase 1 regulatory subunit 3A), two-siRNA summed score (-2 to +2) = 1
MRPL49 (mitochondrial ribosomal protein L49), two-siRNA summed score (-2 to +2) = 0
OR51G1 (olfactory receptor family 51 subfamily G member 1), two-siRNA summed score (-2 to +2) → 0
GSTZ1 (glutathione S-transferase zeta 1), Outcome → inactive
